For at least one entry, the source does not settle the construct or the ends of the probe.

The text below walks through data of paper PMC7061876.

For this series, the system named is His-SlPIF4 (Solanum lycopersicum). Kind of series: EMSA. As to conditions: LightShift Chemiluminescent EMSA kit binding buffer (composition and pH not given), 20 min at room temperature; 6% native PAGE in Tris-glycine, 100 V; recombinant protein; protein details: His (pET-32a vector); label: biotin. (In EMSA bound probe runs differently from free probe, usually more slowly.)

“ATCACGTGTCACGTGGTTAAA (double strand) [GAI4-G1/2-wt]”: the binding result is “binds”. With “CTCAATTTTACACGTGTGTCCGCCTA (double strand) [CBF1-G2-wt]” the entry was “binds”.
